# Laboratory results: patent US20040241092A1, “Method for determining alleviation of pain in an animal” (priority 2003, published 2004)
# Columns and labels:
# [1] = test system: (IL-6 plus IL-6sR)-induced arthritic pain in rat; assay: IL6 Rat: dose response alleviation of (IL-6 plus IL-6sR)-induced arthritic pain (Method Example 1); assay type: in vivo; conditions: oral dose of 10 mg/kg or greater (1, 3, 10, 30 mg/kg tested) 1 hour before 100 ng hrIL-6 + 300 ng hrIL-6sR; measured 1 hour post injection
# Method: (§1) It should be appreciated that in all of the below examples, unless indicated otherwise, male Wistar rats (175-200 g) were housed in solid bottom isolator cages, 2-4 rats per cage, with corncob bedding on a 12 hour:12 hour light:dark cycle. Animals were fed standard rat chow with water available ad libitum.
# (§2) It should be appreciated that in all of the below examples, hind paw weight bearing differentials between the paw of the limb having the control joint (in animals administered test compound vehicle only) and the paw of the limb having the contralateral test joint (in control or inducement animals administered test compound vehicle only and in treatment animals administered test compound dissolved in test compound vehicle) were determined using an incapacitance tester, model 2KG (Linton Instrumentation, Norfolk, United Kingdom). […] Each data point is the mean of three readings of 5 seconds duration. The hind paw weight bearing differentials were expressed in grams and calculated as the [sum of (the weight in grams placed on the control limb minus the weight in grams placed on the contralateral test limb for each animal in the inducement or treatment animal group)] divided by the number of animals in the inducement or treatment animal group. […]
# [2] = test system: (IL-6 plus IL-6sR)-induced arthritic pain in rat; assay: IL6 Rat: time course of alleviation of (IL-6 plus IL-6sR)-induced arthritic pain (Method Example 2); assay type: in vivo; conditions: 10 mg/kg oral 1 hour before 100 ng hrIL-6 + 300 ng hrIL-6sR
# Method: as §1, §2
smiles,measurement,setting,value
COc1ccc2cc([C@H](C)C(=O)O)ccc2c1 [naproxen],"percent inhibition of a change in hind paw weight distribution, compared to test compound vehicle alone",[1],inhibit pain in a statistically significant manner
same,change in hind paw weight distribution (pain) compared to test compound vehicle alone,[2]; Time 1 and 3 hours post injection,reduced pain in a statistically significant manner
same,change in hind paw weight distribution (pain) compared to test compound vehicle alone,[2]; Time 6 hours post injection,reduced pain in a statistically significant manner
